{"source": "the supplement of paper PMC8728848", "binders": {"B1": {"name": "Aap lectin (Staphylococcus epidermidis) (protein)", "chain": "VNLNYSSPFMSLLSMPADSSSNNTKNTIDIPPTTVKGRDNYDFYGRVDIESNPTDLNATNLTRYNYGQPPGTTTAGAVQFKNQVSFDKDFDFNIRVANNRQSNTTGADGWGFMFSKKDGDDFLKNGGILREKGTPSAAGFRIDTGYYNNDPLDKIQKQAGQGYRGYGTFVKNDSQGNTSKVGSGTPSTDFLNYADNTTNDLDGKFHGQKLNNVNLKYNASNQTFTATYAGKTWTATLSELGLSPTDSYNFLVTSS"}}, "test_in_all_cases": "glycan array binding signal (z-score within array); higher = stronger binding", "conditions_in_all_cases": "glycan notation: IUPAC condensed, linker removed", "key": {"[1]": {"target": "Fuc(a1-2)[GalNAc(a1-3)]Gal(b1-3)GlcNAc(b1-6)GalNAc", "summary_of_the_method": "(§1)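 The Consortium for Functional Glycomics database supplied 3228 glycan arrays, of which those lacking an available protein sequence were dropped. The binding signal, a within-array Z-score, was averaged across arrays of the same protein sequence and across linkers. Negative scores can be read as non-binding.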"}, "[2]": {"target": "Fuc(a1-2)[GalNAc(a1-3)]Gal(b1-4)Glc", "summary_of_the_method": "as §1"}, "[3]": {"target": "Fuc(a1-2)[GalNAc(a1-3)]Gal(b1-4)GlcNAc", "summary_of_the_method": "as §1"}, "[4]": {"target": "Fuc(a1-2)[GalNAc(a1-3)]Gal(b1-4)GlcNAc(b1-2)Man", "summary_of_the_method": "as §1"}, "[5]": {"target": "Fuc(a1-2)[GalNAc(a1-3)]Gal(b1-4)GlcNAc(b1-2)Man(a1-3)[Fuc(a1-2)[GalNAc(a1-3)]Gal(b1-4)GlcNAc(b1-2)Man(a1-6)]Man(b1-4)GlcNAc(b1-4)GlcNAc", "summary_of_the_method": "as §1"}, "[6]": {"target": "Fuc(a1-2)[GalNAc(a1-3)]Gal(b1-4)GlcNAc(b1-2)Man(a1-3)[Fuc(a1-2)[GalNAc(a1-3)]Gal(b1-4)GlcNAc(b1-2)Man(a1-6)]Man(b1-4)GlcNAc(b1-4)[Fuc(a1-6)]GlcNAc", "summary_of_the_method": "as §1"}, "[7]": {"target": "Fuc(a1-2)[GalNAc(a1-3)]Gal(b1-4)GlcNAc(b1-3)Gal(b1-4)GlcNAc", "summary_of_the_method": "as §1"}, "[8]": {"target": "Fuc(a1-2)[GalNAc(a1-3)]Gal(b1-4)GlcNAc(b1-3)Gal(b1-4)GlcNAc(b1-3)Gal(b1-4)GlcNAc", "summary_of_the_method": "as §1"}, "[9]": {"target": "Fuc(a1-2)[GalNAc(a1-3)]Gal(b1-4)GlcNAc(b1-3)GalNAc", "summary_of_the_method": "as §1"}, "[10]": {"target": "Fuc(a1-2)[GalNAc(a1-3)]Gal(b1-4)GlcNAc(b1-3)[Fuc(a1-2)[GalNAc(a1-3)]Gal(b1-4)GlcNAc(b1-6)]GalNAc", "summary_of_the_method": "as §1"}, "[11]": {"target": "Fuc(a1-2)[GalNAc(a1-3)]Gal(b1-4)GlcNAc(b1-6)GalNAc", "summary_of_the_method": "as §1"}, "[12]": {"target": "Fuc(a1-2)[GalNAc(a1-3)]Gal(b1-4)[Fuc(a1-3)]GlcNAc", "summary_of_the_method": "as §1"}, "[13]": {"target": "Fuc(a1-2)[GalNAc(a1-3)]Gal(b1-4)[Fuc(a1-3)]GlcNAc(b1-3)GalNAc", "summary_of_the_method": "as §1"}, "[14]": {"target": "Fuc(a1-2)[GalNAc(a1-4)]Gal(b1-4)GlcNAc", "summary_of_the_method": "as §1"}, "[15]": {"target": "Fuc(a1-2)[GalNAc(b1-3)]Gal", "summary_of_the_method": "as §1"}, "Fuc(a1-3)GlcNAc": {"target": "Fuc(a1-3)GlcNAc", "summary_of_the_method": "as §1"}, "[16]": {"target": "Fuc(a1-3)[Gal(b1-4)]Glc6S", "summary_of_the_method": "as §1"}, "[17]": {"target": "Fuc(a1-3)[Gal(b1-4)]GlcNAc", "summary_of_the_method": "as §1"}, "[18]": {"target": "Fuc(a1-3)[Gal(b1-4)]GlcNAc(b1-2)Man", "summary_of_the_method": "as §1"}, "[19]": {"target": "Fuc(a1-3)[Gal(b1-4)]GlcNAc(b1-2)Man(a1-3)[Fuc(a1-3)[Gal(b1-4)]GlcNAc(b1-2)Man(a1-6)]Man(b1-4)GlcNAc(b1-4)GlcNAc", "summary_of_the_method": "as §1"}, "[20]": {"target": "Fuc(a1-3)[Gal(b1-4)]GlcNAc(b1-2)Man(a1-3)[Fuc(a1-3)[Gal(b1-4)]GlcNAc(b1-2)Man(a1-6)]Man(b1-4)GlcNAc(b1-4)[Fuc(a1-6)]GlcNAc", "summary_of_the_method": "as §1"}, "[21]": {"target": "Fuc(a1-3)[Gal(b1-4)]GlcNAc(b1-3)Gal(b1-3)[Fuc(a1-4)]GlcNAc", "summary_of_the_method": "as §1"}, "[22]": {"target": "Fuc(a1-3)[Gal(b1-4)]GlcNAc(b1-3)Gal(b1-4)[Fuc(a1-3)]GlcNAc", "summary_of_the_method": "as §1"}, "[23]": {"target": "Fuc(a1-3)[Gal(b1-4)]GlcNAc(b1-3)Gal(b1-4)[Fuc(a1-3)]GlcNAc(b1-3)Gal(b1-4)[Fuc(a1-3)]GlcNAc", "summary_of_the_method": "as §1"}, "[24]": {"target": "Fuc(a1-3)[Gal(b1-4)]GlcNAc(b1-3)GalNAc", "summary_of_the_method": "as §1"}, "[25]": {"target": "Fuc(a1-3)[Gal(b1-4)]GlcNAc(b1-6)GalNAc", "summary_of_the_method": "as §1"}, "[26]": {"target": "Fuc(a1-3)[Gal(b1-4)]GlcNAc(b1-6)[Gal(b1-3)GlcNAc(b1-3)]Gal(b1-4)Glc", "summary_of_the_method": "as §1"}, "[27]": {"target": "Fuc(a1-3)[Gal(b1-4)]GlcNAc6S", "summary_of_the_method": "as §1"}, "[28]": {"target": "Fuc(a1-3)[Gal3S(b1-4)]Glc", "summary_of_the_method": "as §1"}, "[29]": {"target": "Fuc(a1-3)[Gal3S(b1-4)]GlcNAc", "summary_of_the_method": "as §1"}, "[30]": {"target": "Fuc(a1-3)[Gal3S(b1-4)]GlcNAc6S", "summary_of_the_method": "as §1"}, "[31]": {"target": "Fuc(a1-3)[GalNAc(b1-4)]GlcNAc", "summary_of_the_method": "as §1"}, "[32]": {"target": "Fuc(a1-3)[GalNAc(b1-4)]GlcNAc6S", "summary_of_the_method": "as §1"}, "Fuc(a1-4)GlcNAc": {"target": "Fuc(a1-4)GlcNAc", "summary_of_the_method": "as §1"}, "Fuc(b1-3)GlcNAc": {"target": "Fuc(b1-3)GlcNAc", "summary_of_the_method": "as §1"}, "Gal(a1-2)Gal": {"target": "Gal(a1-2)Gal", "summary_of_the_method": "as §1"}, "Gal(a1-3)Gal": {"target": "Gal(a1-3)Gal", "summary_of_the_method": "as §1"}}, "note": "Some of the results follow."}
{"binder": "B1", "values": [{"measurement": "glycan array binding signal (z-score)", "setting": "[1]", "result": 1.3}, {"measurement": "glycan array binding signal (z-score)", "setting": "[2]", "result": -0.043}, {"measurement": "glycan array binding signal (z-score)", "setting": "[3]", "result": -0.868}, {"measurement": "glycan array binding signal (z-score)", "setting": "[4]", "result": -0.759}, {"measurement": "glycan array binding signal (z-score)", "setting": "[5]", "result": -0.574}, {"measurement": "glycan array binding signal (z-score)", "setting": "[6]", "result": -0.849}, {"measurement": "glycan array binding signal (z-score)", "setting": "[7]", "result": -0.888}, {"measurement": "glycan array binding signal (z-score)", "setting": "[8]", "result": 0.553}, {"measurement": "glycan array binding signal (z-score)", "setting": "[9]", "result": 0.8}, {"measurement": "glycan array binding signal (z-score)", "setting": "[10]", "result": 0.427}, {"measurement": "glycan array binding signal (z-score)", "setting": "[11]", "result": -0.657}, {"measurement": "glycan array binding signal (z-score)", "setting": "[12]", "result": 1.53}, {"measurement": "glycan array binding signal (z-score)", "setting": "[13]", "result": 0.814}, {"measurement": "glycan array binding signal (z-score)", "setting": "[14]", "result": 0.219}, {"measurement": "glycan array binding signal (z-score)", "setting": "[15]", "result": -0.891}, {"measurement": "glycan array binding signal (z-score)", "setting": "Fuc(a1-3)GlcNAc", "result": -0.693}, {"measurement": "glycan array binding signal (z-score)", "setting": "[16]", "result": -0.16}, {"measurement": "glycan array binding signal (z-score)", "setting": "[17]", "result": 0.297}, {"measurement": "glycan array binding signal (z-score)", "setting": "[18]", "result": -0.955}, {"measurement": "glycan array binding signal (z-score)", "setting": "[19]", "result": 2.08}, {"measurement": "glycan array binding signal (z-score)", "setting": "[20]", "result": 1.21}, {"measurement": "glycan array binding signal (z-score)", "setting": "[21]", "result": -0.83}, {"measurement": "glycan array binding signal (z-score)", "setting": "[22]", "result": 1.81}, {"measurement": "glycan array binding signal (z-score)", "setting": "[23]", "result": 0.476}, {"measurement": "glycan array binding signal (z-score)", "setting": "[24]", "result": 1.45}, {"measurement": "glycan array binding signal (z-score)", "setting": "[25]", "result": -0.643}, {"measurement": "glycan array binding signal (z-score)", "setting": "[26]", "result": 2.12}, {"measurement": "glycan array binding signal (z-score)", "setting": "[27]", "result": -0.113}, {"measurement": "glycan array binding signal (z-score)", "setting": "[28]", "result": 1.63}, {"measurement": "glycan array binding signal (z-score)", "setting": "[29]", "result": 2.12}, {"measurement": "glycan array binding signal (z-score)", "setting": "[30]", "result": -0.816}, {"measurement": "glycan array binding signal (z-score)", "setting": "[31]", "result": -0.063}, {"measurement": "glycan array binding signal (z-score)", "setting": "[32]", "result": -0.715}, {"measurement": "glycan array binding signal (z-score)", "setting": "Fuc(a1-4)GlcNAc", "result": -0.27}, {"measurement": "glycan array binding signal (z-score)", "setting": "Fuc(b1-3)GlcNAc", "result": 0.487}, {"measurement": "glycan array binding signal (z-score)", "setting": "Gal(a1-2)Gal", "result": -0.818}, {"measurement": "glycan array binding signal (z-score)", "setting": "Gal(a1-3)Gal", "result": 0.083}]}
